Reference: publication PMC3068935
These are yes or no findings as the source states them, for the method shown. Binding seen in cells or lysates may run through a third protein. A result given as binding can be weak or reduced; the word gives no strength. Sequences can lack the tags named with a protein.

Tests used:
[1] = molecular target: T1, FLAG-ATF3 (activating transcription factor 3) (UniProt P18847); test: co-IP
T1 sequence: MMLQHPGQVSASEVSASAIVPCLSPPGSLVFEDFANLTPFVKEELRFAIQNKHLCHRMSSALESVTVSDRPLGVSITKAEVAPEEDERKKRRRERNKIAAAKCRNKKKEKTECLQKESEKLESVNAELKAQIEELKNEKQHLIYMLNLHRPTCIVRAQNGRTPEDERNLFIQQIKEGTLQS

[2] = molecular target: T1, FLAG-ATF3 (activating transcription factor 3); test: co-IP; 293FT cells transfected, total cell lysates; IP with anti-FLAG, IB with anti-His and anti-p53; 1 hour at 4°C, protein G-sepharose

spliced HBZ (sHBZ)-Myc-His
binding [1]: binds | binding [2]: binds
